Results taken from PubChem BioAssay AID192 (DTP/NCI, 2004).
The list shows only some results of the screen, not a fair sample: it is rich in T/C values a quarter to a half above the control, in often repeated tests (any T/C) and in doses without a T/C. Other doses and runs of a compound stand elsewhere. T/C: endpoint of the treated group in % of that of the vehicle group. Some doses have a count of surviving animals in place of a T/C: the source holds a T/C of zero for them, seemingly a mark for toxic or unscored doses. Some doses without a T/C left all or most animals alive at the check, yet need not have been tolerated: survival well below the control is almost never listed, so the zero probably covers shortened survival too. Counts of survivors are from the toxicity check (mostly the fifth day) where no day follows; animals may have died later. Schedule codes are those of the source, read here as Q, the interval in days (D) or hours (H), X, the number of doses. Some doses were run more than once; the values are given in rising order. For survival time, this PubChem deposit counts one and a half times the control or more as active, and values a quarter to a half above the control carry no call in these data; other NCI protocols may use other cut-offs. Marks such as (2×) stand for listed records that agree. Some T/C values carry the count of animals alive at the toxicity check (mostly the fifth day); where none is given, no animal had died by that day.

Tested on: BDF1 mice, B16 melanoma ip, median survival T/C
Test: NCI In Vivo Anticancer Drug Screen. Data for tumor model B16 Melanoma (intraperitoneal) in B6D2F1 (BDF1) mice
Settings: T/C endpoint: median survival time, higher T/C = longer survival
Method in brief: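 Survival or tumor size is measured after treatment of tumor-bearing mice and normalised to the vehicle-treated control group.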

[1] = dose: 6.0 mg/kg/injection, schedule: Q01DX009 (ip), vehicle: saline with Tween-80
[2] = dose: 200.0 mg/kg/injection, schedule: Q01DX009 (ip), vehicle: saline with Tween-80
[3] = dose: 400.0 mg/kg/injection, schedule: Q01DX009 (ip), vehicle: saline with Tween-80
[4] = dose: 200.0 mg/kg/injection, schedule: Q01DX009 (ip), vehicle: saline
[5] = dose: 50.0 mg/kg/injection, schedule: Q01DX009 (ip), vehicle: Klucel (hydroxypropylcellulose) (HPC)
[6] = dose: 100.0 mg/kg/injection, schedule: Q01DX009 (ip), vehicle: Klucel (hydroxypropylcellulose) (HPC)
[7] = dose: 50.0 mg/kg/injection, schedule: Q01DX009 (ip), vehicle: saline
[8] = dose: 25.0 mg/kg/injection, schedule: Q01DX009 (ip), vehicle: saline
[9] = dose: 100.0 mg/kg/injection, schedule: Q01DX009 (ip), vehicle: saline
[10] = dose: 400.0 mg/kg/injection, schedule: Q01DX009 (ip), vehicle: saline
[11] = dose: 800.0 mg/kg/injection, schedule: Q01DX009 (ip), vehicle: saline

With `CCC(C)C1NC(=O)C(NC(=O)c2c3nc4c(C(=O)NC5C(=O)NC(C(C)CC)C(=O)N6CCCC6C(=O)N(C)CC(=O)N(C)C(C(C)C)C(=O)OC5C)cc([N+](=O)[O-])c(C)c4oc-3c(C)c(=O)c2N)C(C)OC(=O)C(C(C)C)N(C)C(=O)CN(C)C(=O)C2CCCN2C1=O` (stereo not given) the T/C (dose: 200.0 micrograms/kg/injection, schedule: Q01DX009 (ip), vehicle: water) was 134 % of control and the survivor count (dose: 800.0 micrograms/kg/injection, schedule: Q01DX009 (ip), vehicle: water) was 10 of 10.
With `Cc1c(N)nc(C(CC(N)=O)NCC(N)C(N)=O)nc1C(=O)NC(C(=O)NC(C)C(O)CC(=O)NC(C(=O)NC(OC1OC(C)C(N)C(O)C1O)C(O)c1nc(-c2nc(C(=O)NCCCC(N)CC(=O)NCCCNCCCCN)cs2)cs1)C(C)O)C(OC1OC(CO)C(O)C(O)C1OC1OC(CO)C(O)C(OC(N)=O)C1O)c1cnc[nH]1` (stereo not given) the T/C (dose: 0.4 mg/kg/injection, schedule: Q01DX009 (ip), vehicle: saline) was 135 % of control [9 of 10 alive] and the survivor count (dose: 3.2 mg/kg/injection, schedule: Q01DX009 (ip), vehicle: saline) was 9 of 10.
For `NCCC(O)C(=O)NC1CC(N)C(OC2OC(CO)C(O)C(O)C2N)C(OC2OC(CO)C(O)C2O)C1O` (stereo not given), the T/C (dose: 5.0 mg/kg/injection, schedule: Q01DX009 (ip), vehicle: saline) was 128 % of control.
For `CNC(=O)Oc1coc(CCl)cc1=O`, the survivor count (dose: 60.0 mg/kg/injection, schedule: Q01DX009 (ip), vehicle: Klucel (hydroxypropylcellulose) (HPC)) was 1 of 6.
`CC1=C2C(=O)c3ccccc3C2=C(C)S(=O)(=O)O1` was tested, and the survivor count (dose: 200.0 mg/kg/injection, schedule: Q01DX009 (ip), vehicle: carboxymethylcellulose (CMC)) was 3 of 10.
For `O=C1C(=O)c2ccccc2-c2ccccc21.O=C1C(=O)c2ccccc2-c2ccccc21.[Hg]`, the survivor count [1] was 10 of 10 and the survivor count (dose: 12.0 mg/kg/injection, schedule: Q01DX009 (ip), vehicle: saline with Tween-80) was 4 of 10.
In the case of `Cc1cc(C)c(NC(=O)N(CCCl)N=O)cc1C`, the survivor count (dose: 90.0 mg/kg/injection, schedule: Q01DX009 (ip), vehicle: saline) is reported as 6 of 6 and the survivor count (dose: 180.0 mg/kg/injection, schedule: Q01DX009 (ip), vehicle: saline) is reported as 6 of 6.
`Cc1nnc(NS(=O)(=O)c2ccc(N=Nc3nc4[nH]c(N)nc(=S)c4[nH]3)cc2)s1` was tested, and the survivor count [2] was 10 of 10 and the survivor count [3] was 4 of 10.
With `Nc1ncnc(N)c1N=O` the T/C [4] was 126 % of control.
In the case of `O=C1NC(=O)C2(CCc3ccc(N(CCCl)CCCl)cc32)N1` (stereo not given), the T/C [1] is reported as 137 % of control, the survivor count (dose: 6.25 mg/kg/injection, schedule: Q01DX004 (oral), vehicle: saline with Tween-80) is reported as 4 of 10 and the survivor count (dose: 24.0 mg/kg/injection, schedule: Q01DX009 (ip), vehicle: saline with Tween-80) is reported as 10 of 10. The survivor count (dose: 25.0 mg/kg/injection, schedule: Q01DX004 (oral), vehicle: saline with Tween-80) was 5 of 10, the survivor count (dose: 48.0 mg/kg/injection, schedule: Q01DX009 (ip), vehicle: saline with Tween-80) was 10 of 10 and the survivor count (dose: 50.0 mg/kg/injection, schedule: Q01DX004 (oral), vehicle: saline with Tween-80) was 6 of 10. For the same compound, the survivor count (dose: 100.0 mg/kg/injection, schedule: Q01DX004 (oral), vehicle: saline with Tween-80) was 3 of 10 and the survivor count (dose: 200.0 mg/kg/injection, schedule: Q01DX004 (oral), vehicle: saline with Tween-80) was 5 of 10.
With `CN1C(=O)NC(c2ccc(Cl)cc2)(c2ccc(Cl)cc2)C1=O` the T/C (dose: 3.12 mg/kg/injection, schedule: Q01DX009 (ip), vehicle: water) was 127 % of control and the survivor count (dose: 400.0 mg/kg/injection, schedule: Q01DX009 (ip), vehicle: distilled water + Tween-80) was 7 of 10.
In the case of `O=C1NNC(=O)NN1`, the T/C [5] is reported as 125 % of control.
In the case of `CC1(C)N=C(N)N=C(N)N1c1cc(Cl)ccc1Cl`, the survivor count [5] is reported as 6 of 10 and the survivor count [6] is reported as 0 of 10.
In the case of `C(CSC1=NCCN1)CSC1=NCCN1`, the survivor count [4] is reported as 3 of 10.
For `O=C(O)CP(=O)(O)O`, the survivor count (dose: 128.0 mg/kg/injection, schedule: Q01DX009 (ip), vehicle: saline) was 9 of 10.
With `O=C(CCl)c1ccc(O)c(O)c1` the survivor count [5] was 9 of 10, the survivor count [6] was 0 of 10 and the survivor count (dose: 150.0 mg/kg/injection, schedule: Q01DX009 (ip), vehicle: Klucel (hydroxypropylcellulose) (HPC)) was 0 of 10.
For `CC[n+]1ccc(Nc2ccc(NC(=O)c3ccc(Nc4cc[n+](CC)c5ccc(N)cc45)cc3)cc2)cc1`, the survivor count (dose: 8.0 mg/kg/injection, schedule: Q01DX009 (ip), vehicle: water) was 10 of 10.
With `Cc1ccc2no[n+]([O-])c2c1[N+](=O)[O-]` the survivor count [2] was 6 of 10 and the survivor count [3] was 0 of 10.
In the case of `CN(C)CCCC1c2ccccc2Oc2ccc(C(F)(F)F)cc21` (stereo not given), the survivor count [7] is reported as 10 of 10.
With `COc1cccc2c1C(=O)c1c(O)c3c(c(O)c1C2=O)C[C@@](O)(/C(C)=N/NC(=O)c1ccc(Cl)cc1)C[C@@H]3OC1CC(N)C(O)C(C)O1` (stereo not given in full) the T/C (dose: 5.0 mg/kg/injection, schedule: Q01DX001 (ip), vehicle: water) was 126 % of control [7 of 10 alive], the survivor count (dose: 16.0 mg/kg/injection, schedule: Q01DX009 (ip), vehicle: suspension in saline) was 10 of 10 and the survivor count (dose: 20.0 mg/kg/injection, schedule: Q01DX001 (ip), vehicle: water) was 5 of 10. For the same compound, the survivor count (dose: 40.0 mg/kg/injection, schedule: Q01DX001 (ip), vehicle: water) was 1 of 10 and 9 of 10 and the survivor count (dose: 80.0 mg/kg/injection, schedule: Q01DX001 (ip), vehicle: water) was 7 of 10.
For `CCCCCCCCCCCCCCCCCC(=O)[O][Pb]([CH3])([CH3])[CH3]`, the survivor count (dose: 10.0 mg/kg/injection, schedule: Q01DX009 (ip), vehicle: Klucel (hydroxypropylcellulose) (HPC)) was 10 of 10 and the survivor count (dose: 20.0 mg/kg/injection, schedule: Q01DX009 (ip), vehicle: Klucel (hydroxypropylcellulose) (HPC)) was 7 of 10.
For `O=C(CCCN1CCC(O)(c2ccc(Cl)cc2)CC1)c1ccc(F)cc1`, the survivor count [8] was 10 of 10.
With `CN1CCN(c2ccc(Cl)cc2)CC1` the survivor count [6] was 9 of 10.
In the case of `O=C1C(N2CCN(CCO)CC2)=C(N2CC2)C(=O)C(N2CCN(CCO)CC2)=C1N1CC1`, the survivor count (dose: 2.0 mg/kg/injection, schedule: Q01DX009 (ip), vehicle: saline) is reported as 10 of 10.
In the case of `Nc1n[nH]c(N)n1`, the T/C [9] is reported as 91, 95 [5 of 6 alive], 96, 97 (4×), 100 (4×), 104, 105, 106 (2×), 107, 110, 111 (2×), 113 (2×), 113 [5 of 6 alive], 115, 116 % of control, the survivor count [9] is reported as 6 of 6 and the T/C [2] is reported as 126 % of control. The T/C [4] was 95, 97 (2×), 99, 102 (4×), 104, 105 (2×), 106, 107, 108, 109, 110, 112, 113 (3×), 113 [5 of 6 alive] (2×), 117, 120, 123 % of control (2×), the T/C (dose: 400.0 mg/kg/injection, schedule: Q01DX009 (ip), vehicle: saline with Tween-80, evaluated on day 45) was 95 and 102 % of control and the T/C (dose: 400.0 mg/kg/injection, schedule: Q01DX009 (ip), vehicle: saline with Tween-80, evaluated on day 60) was 102 and 126 % of control. The T/C [10] was 88, 93, 97 (2×), 100 (4×), 102 (2×), 102 [5 of 6 alive], 103, 105 (2×), 107, 108, 109, 110 (3×), 110 [5 of 6 alive], 113, 123, 155, 166 % of control [5 of 6 alive], the survivor count [10] was 6 of 6 and the T/C (dose: 800.0 mg/kg/injection, schedule: Q01DX009 (ip), vehicle: saline with Tween-80, evaluated on day 45) was 100 % of control (2×). For the same compound, the T/C (dose: 800.0 mg/kg/injection, schedule: Q01DX009 (ip), vehicle: saline with Tween-80, evaluated on day 60) was 100 and 130 % of control, the T/C [11] was 90, 91, 92 (2×), 93, 93 [5 of 6 alive], 97, 100 (2×), 102 [4 of 6 alive], 103, 105, 108 [9 of 10 alive], 109, 111, 112, 113, 116 (2×), 117 (2×), 128, 133, 139 % of control and the survivor count [11] was 6 of 6.
In the case of `Cc1ccc2cc3c(ccc4ccccc43)c3c2c1CC3`, the T/C [9] is reported as 126 % of control, the T/C [4] is reported as 126 % of control and the T/C [3] is reported as 129 % of control. The T/C [10] was 130 % of control.
With `O=c1[nH]c2ccccc2c2cc3ccccc3cc12` the survivor count [8] was 10 of 10, the survivor count [7] was 10 of 10 and the survivor count [9] was 9 of 10. The survivor count [4] was 10 of 10 and the survivor count [10] was 10 of 10.
With `CNC(=O)Oc1c(C)occc1=O` the survivor count [9] was 5 of 6, the survivor count [4] was 2 of 6 and the survivor count [10] was 0 of 6.
